Measured values from paper PMC8754649.

Chains of the proteins cited; added tags and fusions are not shown. Residues count along the entry.
UniProt Q15233, 146-312, stated change not applied: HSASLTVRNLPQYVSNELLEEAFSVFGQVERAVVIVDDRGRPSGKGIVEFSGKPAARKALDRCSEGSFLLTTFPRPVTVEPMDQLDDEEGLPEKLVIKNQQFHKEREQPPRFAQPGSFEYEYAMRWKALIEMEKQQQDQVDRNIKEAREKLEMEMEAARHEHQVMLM

Target: NONOΔRRM1 (human) (UniProt Q15233)
Experiment: MST
Settings: 1 mg/ml heparin; 5' nucleotide is dT, remainder ribo; MST: 20 mM Tris-Cl pH 7.5, 250 mM KCl, 50 mM L-proline, 0.5 mM EDTA, 0.05% Tween 20, 1 mg/ml heparin; oligo 100 nM (polyG 500 nM); 15 min on ice; recombinant protein; residues 146-312; protein details: N-terminal His6, removed by TEV; label: 5'-6-FAM

TUUUUUUUUU [polyU (dTUUUUUUUUU)]: no binding.

Negatives hold for the conditions tested. At least one verdict rests on a figure or table, not on a statement of the authors.
